Experimental data: US8815940B2, “Coumarin-chalcones as anticancer agents” (Council of Scientific & Industrial Research, priority 2010, dated 2014)

System: MCF-7 (breast adenocarcinoma)
Assay: sulforhodamine B cell cytotoxicity assay, MCF-7
Format: cell-based
Settings: Homo sapiens, MCF7; Table 2; SRB assay, 48 h of exposure
Procedure: The human cancer cell lines—KB (oral squamous cell carcinoma). C33A (cervical carcinoma), MCF-7 (breast adenocarcinoma), A549 (lung carcinoma) and mouse embryo fibroblast (NIH3T3) were obtained from American Type Culture Collection (ATCC), USA. These cells were grown in recommended media supplemented with 10% FBS, 50 μg/mL gentamycin and 2.5 μg/mL amphotericin B in a 5% CO2 humidified atmosphere at 37° C. Cells below 15 passage level were used for this study. A colorimetric sulforhodamine B assay was used for the measurement of cell cytotoxicity. 1×10^4 cells (in 180 μL) were added to each well of 96-well plate and incubated overnight to allow for cell attachment. Cells were then treated with serial two-fold dilutions of test compounds (100 to 1.6 μM) and untreated cells receiving the same volume of medium served as control. After 48 h of exposure, cells were fixed with ice-cold 50% TCA, stained with 0.4% (w/v) SRB in 1% acetic acid, washed and air dried. Bound dye was dissolved in 150 μL of 10 mM tris base. The plates were read at 540 nm absorbance on plate reader (Polarstar Galaxy, BMG, Germany). The cytotoxic effects of compounds were calculated as % inhibition in cell growth as per the formula […]. Determination of 50% inhibitory concentration (IC50) was based on dose-response curves.

SMILES: CC/C(=C(\c1ccccc1)c1ccc(OCCN(C)C)cc1)c1ccccc1 [Tamoxifen, reference compound]
- IC50: 11.8 µM
